Binding data for 2 molecules are collected here from PMC4386032.

No constants are given. Whether binding was seen depends on the method and setting. Binding seen in cells or lysates may run through a third protein. Some results given as binding are weak or reduced against the parent protein; the word gives no strength.

The assay has as its target Rvs167-VC (amphiphysin Rvs167 with the C-terminal half of Venus) (yeast (budding yeast)) (UniProt P39743). In words: split reporter; BiFC in live yeast: VN on Vps1 or Vps1 RR-EE, VC on Rvs167, strains crossed for co-expression; fluorescence microscopy.

B1: Vps1-VN (Vps1 with the N-terminal half of Venus) (protein, UniProt P21576 1-704)
chain: MDEHLISTINKLQDALAPLGGGSQSPIDLPQITVVGSQSSGKSSVLENIVGRDFLPRGTGIVTRRPLVLQLINRRPKKSEHAKVNQTANELIDLNINDDDKKKDESGKHQNEGQSEDNKEEWGEFLHLPGKKFYNFDEIRKEIVKETDKVTGANSGISSVPINLRIYSPHVLTLTLVDLPGLTKVPVGDQPPDIERQIKDMLLKYISKPNAIILSVNAANTDLANSDGLKLAREVDPEGTRTIGVLTKVDLMDQGTDVIDILAGRVIPLRYGYIPVINRGQKDIEHKKTIREALENERKFFENHPSYSSKAHYCGTPYLAKKLNSILLHHIRQTLPEIKAKIEATLKKYQNELINLGPETMDSASSVVLSMITDFSNEYAGILDGEAKELSSQELSGGARISYVFHETFKNGVDSLDPFDQIKDSDIRTIMYNSSGSAPSLFVGTEAFEVLVKQQIRRFEEPSLRLVTLVFDELVRMLKQIISQPKYSRYPALREAISNQFIQFLKDATIPTNEFVVDIIKAEQTYINTAHPDLLKGSQAMVMVEEKLHPRQVAVDPKTGKPLPTQPSSSKAPVMEEKSGFFGGFFSTKNKKKLAALESPPPVLKATGQMTERETMETEVIKLLISSYFSIVKRTIADIIPKALMLKLIVKSKTDIQKVLLEKLYGKQDIEELTKENDITIQRRKECKKMVEILRNASQIVSSV
As to B1, the binding result is “binds”.

B2: Vps1 RR-EE-VN (Vps1 RR457,458EE with the N-terminal half of Venus) (protein, UniProt P21576 1-704)
chain: MDEHLISTINKLQDALAPLGGGSQSPIDLPQITVVGSQSSGKSSVLENIVGRDFLPRGTGIVTRRPLVLQLINRRPKKSEHAKVNQTANELIDLNINDDDKKKDESGKHQNEGQSEDNKEEWGEFLHLPGKKFYNFDEIRKEIVKETDKVTGANSGISSVPINLRIYSPHVLTLTLVDLPGLTKVPVGDQPPDIERQIKDMLLKYISKPNAIILSVNAANTDLANSDGLKLAREVDPEGTRTIGVLTKVDLMDQGTDVIDILAGRVIPLRYGYIPVINRGQKDIEHKKTIREALENERKFFENHPSYSSKAHYCGTPYLAKKLNSILLHHIRQTLPEIKAKIEATLKKYQNELINLGPETMDSASSVVLSMITDFSNEYAGILDGEAKELSSQELSGGARISYVFHETFKNGVDSLDPFDQIKDSDIRTIMYNSSGSAPSLFVGTEAFEVLVKQQIEEFEEPSLRLVTLVFDELVRMLKQIISQPKYSRYPALREAISNQFIQFLKDATIPTNEFVVDIIKAEQTYINTAHPDLLKGSQAMVMVEEKLHPRQVAVDPKTGKPLPTQPSSSKAPVMEEKSGFFGGFFSTKNKKKLAALESPPPVLKATGQMTERETMETEVIKLLISSYFSIVKRTIADIIPKALMLKLIVKSKTDIQKVLLEKLYGKQDIEELTKENDITIQRRKECKKMVEILRNASQIVSSV
On to B2, for which the binding entry is listed as “binds”.
